# Some of these results come from one statement about several compounds together.
# Target: T1, Progesterone Receptor (Homo sapiens, UniProt P06401)
# T1 construct: expressed in transfected cells; host or cells: CV-1 cells transduced with PRb-BacMam and MMTV-BacMam
# T1 sequence (P06401 1-933): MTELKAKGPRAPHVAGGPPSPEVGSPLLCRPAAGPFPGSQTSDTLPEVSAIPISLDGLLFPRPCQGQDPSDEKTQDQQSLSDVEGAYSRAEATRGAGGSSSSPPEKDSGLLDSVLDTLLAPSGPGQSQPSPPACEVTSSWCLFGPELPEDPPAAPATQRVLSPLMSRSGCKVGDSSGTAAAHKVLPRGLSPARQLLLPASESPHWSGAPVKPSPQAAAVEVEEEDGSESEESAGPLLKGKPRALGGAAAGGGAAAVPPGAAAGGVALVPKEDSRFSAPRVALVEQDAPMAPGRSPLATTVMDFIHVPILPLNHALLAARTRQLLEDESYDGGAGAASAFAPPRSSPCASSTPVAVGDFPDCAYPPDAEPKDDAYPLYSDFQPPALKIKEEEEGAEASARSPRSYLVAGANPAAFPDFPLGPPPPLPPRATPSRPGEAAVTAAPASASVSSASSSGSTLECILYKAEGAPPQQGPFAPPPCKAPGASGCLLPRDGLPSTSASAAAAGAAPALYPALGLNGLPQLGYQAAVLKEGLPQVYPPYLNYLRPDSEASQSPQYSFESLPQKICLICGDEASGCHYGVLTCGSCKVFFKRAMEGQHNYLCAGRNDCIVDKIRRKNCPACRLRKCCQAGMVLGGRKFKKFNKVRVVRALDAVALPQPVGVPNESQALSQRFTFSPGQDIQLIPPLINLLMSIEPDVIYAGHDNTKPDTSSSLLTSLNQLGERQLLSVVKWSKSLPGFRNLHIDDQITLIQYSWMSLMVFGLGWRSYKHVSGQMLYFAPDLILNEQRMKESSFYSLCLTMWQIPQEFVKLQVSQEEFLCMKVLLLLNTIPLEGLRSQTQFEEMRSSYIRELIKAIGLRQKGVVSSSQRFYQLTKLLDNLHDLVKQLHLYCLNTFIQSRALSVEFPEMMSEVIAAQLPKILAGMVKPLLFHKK
# Experiment: Assay for Progesterone Receptor Activity
# Format: cell-based
# Conditions: CV-1 cells transduced with PRb-BacMam and MMTV-BacMam, 24 h
row,Compound,pEC50
1,"Cc1cc(NCC(O)(CC(C)(C)c2cc(F)ccc2O)C(F)(F)F)c2cnn(-c3cccc(C(=O)N4CCC[C@@H]4C(N)=O)c3)c2c1 (stereo partly drawn) [Example 12, 1-{[3-(4-{[4-(5-Fluoro-2-hydroxyphenyl)-2-hydroxy-4-methyl-2-(trifluoromethyl)pentyl]amino}-6-methyl-1H-indazol-1-yl)phenyl]carbonyl}-D-prolinamide]",< 8
2,"COc1ccc(F)cc1C(C)(C)CC(O)(CNc1cc(C)cc2c1cnn2-c1cccc(C(=O)NC(C)(C)C(N)=O)c1)C(F)(F)F (single isomer, unassigned) [Example 5-B, N-(2-amino-1,1-dimethyl-2-oxoethyl)-3-(4-{[4-[5-fluoro-2-(methyloxy)phenyl]-2-hydroxy-4-methyl-2-(trifluoromethyl)pentyl]amino}-6-methyl-1H-indazol-1-yl)benzamide]",< 8
3,"COc1ccc(F)cc1C(C)(C)CC(O)(CNc1cc(C)cc2c1cnn2-c1cccc(C(=O)N(C)CC(N)=O)c1)C(F)(F)F (single isomer, unassigned) [Example 2-A, N-(2-amino-2-oxoethyl)-3-(4-{[4-[5-fluoro-2-(methyloxy)phenyl]-2-hydroxy-4-methyl-2-(trifluoromethyl)pentyl]amino}-6-methyl-1H-indazol-1-yl)-N-methylbenzamide]",< 8
4,"COc1ccc(F)cc1C(C)(C)C[C@](O)(CNc1cc(C)cc2c1cnn2-c1cccc(C(=O)N2CCC[C@@H]2C(N)=O)c1)C(F)(F)F (single isomer, unassigned) [Example 7-B]",< 8
5,"COc1ccc(F)cc1C(C)(C)CC(O)(CNc1cc(C)cc2c1cnn2-c1cccc(C(=O)N(C)CC(N)=O)c1)C(F)(F)F (single isomer, unassigned) [Example 2-B, N-(2-amino-2-oxoethyl)-3-(4-{[4-[5-fluoro-2-(methyloxy)phenyl]-2-hydroxy-4-methyl-2-(trifluoromethyl)pentyl]amino}-6-methyl-1H-indazol-1-yl)-N-methylbenzamide]",< 8
6,"COc1ccc(F)cc1C(C)(C)CC(O)(CNc1cc(C)cc2c1cnn2-c1cccc(C(=O)N[C@@H](CO)C(N)=O)c1)C(F)(F)F (stereo partly drawn) [Example 8, N-[(1S)-2-Amino-1-(hydroxymethyl)-2-oxoethyl]-3-(4-{[4-[5-fluoro-2-(methloxy)phenyl]-2-hydroxy-4-methyl-2-(trifluoromethyl)pentyl]amino}-6-methyl-1H-indazol-1-yl)benzamide]",< 8
7,"COc1ccc(F)cc1C(C)(C)CC(O)(CNc1cc(C)cc2c1cnn2-c1cccc(C(=O)N[C@H](CO)C(N)=O)c1)C(F)(F)F (stereo partly drawn) [Example 16, N-[(1R)-2-Amino-1-(hydroxymethyl)-2-oxoethyl]-3-(4-{[4-[5-fluoro-2-(methloxy)phenyl]-2-hydroxy-4-methyl-2-(trifluoromethyl)pentyl]amino}-6-methyl-1H-indazol-1-yl)benzamide]",< 8
8,"COc1ccc(F)cc1C(C)(C)CC(O)(CNc1cc(C)cc2c1cnn2-c1cccc(C(=O)NCC(N)=O)c1)C(F)(F)F (single isomer, unassigned) [Example 1-B, N-(2-amino-2-oxoethyl)-3-(4-{[4-[5-fluoro-2-(methyloxy)phenyl]-2-hydroxy-4-methyl-2-(trifluoromethyl)pentyl]amino}-6-methyl-1H-indazol-1-yl)benzamide]",< 8
9,"COc1ccc(F)cc1C(C)(C)CC(O)(CNc1cc(C)cc2c1cnn2-c1cccc(C(=O)N(C)[C@@H](C)C(N)=O)c1)C(F)(F)F (stereo partly drawn) [Example 14, N-[(1S)-2-Amino-1-methyl-2-oxoethyl]-3-(4-{[4-[5-fluoro-2-(methloxy)phenyl]-2-hydroxy-4-methyl-2-(trifluoromethyl)pentyl]amino}-6-methyl-1H-indazol-1-yl)-N-methylbenzamide]",< 8
10,"Cc1cc(NCC(O)(CC(C)(C)c2cc(F)ccc2O)C(F)(F)F)c2cnn(-c3cccc(C(=O)NCC(N)=O)c3)c2c1 (stereo not drawn) [Example 10, N-(2-Amino-2-oxoethyl)-3-(4-{[4-(5-fluoro-2-hydroxyphenyl)-2-hydroxy-4-methyl-2-(trifluoromethyl)pentyl]amino}-6-methyl-1H-indazol-1-yl)benzamide]",< 8
11,"Cc1cc(NCC(O)(CC(C)(C)c2cc(F)ccc2O)C(F)(F)F)c2cnn(-c3cccc(C(=O)N(C)CC(N)=O)c3)c2c1 (stereo not drawn) [Example 9, N-(2-Amino-2-oxoethyl)-3-(4-{[4-(5-fluoro-2-hydroxyphenyl)-2-hydroxy-4-methyl-2-(trifluoromethyl)pentyl]amino}-6-methyl-1H-indazol-1-yl)-N-methylbenzamide]",< 8
12,"COc1ccc(F)cc1C(C)(C)CC(O)(CNc1cc(C)cc2c1cnn2-c1cccc(C(=O)N[C@H](C)C(N)=O)c1)C(F)(F)F (single isomer, unassigned) [Example 3-B]",< 8
13,"COc1ccc(F)cc1C(C)(C)CC(O)(CNc1cc(C)cc2c1cnn2-c1cccc(C(=O)N2CCC[C@H]2C(N)=O)c1)C(F)(F)F (stereo partly drawn) [Example 6, 1-{[3-(4-{[4-[5-Fluoro-2-(methyloxy)phenyl]-2-hydroxy-4-methyl-2-(trifluoromethyl)pentyl]amino}-6-methyl-1H-indazol-1-yl)phenyl]carbonyl}-L-prolinamide]",< 8
14,"COc1ccc(F)cc1C(C)(C)CC(O)(CNc1cc(C)cc2c1cnn2-c1cccc(C(=O)N2CCC[C@@H]2C(N)=O)c1)C(F)(F)F (mixture of isomers) [Example 7, 1-{[3-(4-{[4-[5-Fluoro-2-(methyloxy)phenyl]-2-hydroxy-4-methyl-2-(trifluoromethyl)pentyl]amino}-6-methyl-1H-indazol-1-yl)phenyl]carbonyl}-D-prolinamide]",< 8
15,"COc1ccc(F)cc1C(C)(C)CC(O)(CNc1cc(C)cc2c1cnn2-c1cccc(C(=O)N(C)[C@H](C)C(N)=O)c1)C(F)(F)F (stereo partly drawn) [Example 15, N-[(1R)-2-Amino-1-methyl-2-oxoethyl]-3-(4-{[4-[5-fluoro-2-(methloxy)phenyl]-2-hydroxy-4-methyl-2-(trifluoromethyl)-pentyl]amino}-6-methyl-1H-indazol-1-yl)-N-methylbenzamide]",< 8
16,"COc1ccc(F)cc1C(C)(C)C[C@@](O)(CNc1cc(C)cc2c1cnn2-c1cccc(C(=O)N2CCC[C@@H]2C(N)=O)c1)C(F)(F)F (single isomer, unassigned) [Example 7-A]",< 8
17,"Cc1cc(NC[C@](O)(CC(C)(C)c2cc(F)ccc2O)C(F)(F)F)c2cnn(-c3cccc(C(=O)N4CCC[C@@H]4C(N)=O)c3)c2c1 [Example 17, 1-{[3-(4-{[(2R)-4-(5-Fluoro-2-hydroxyphenyl)-2-hydroxy-4-methyl-2-(trifluoromethyl)pentyl]amino}-6-methyl-1H-indazol-1-yl)phenyl]carbonyl}-D-prolinamide]",< 8
18,"COc1ccc(F)cc1C(C)(C)CC(O)(CNc1cc(C)cc2c1cnn2-c1cccc(C(=O)N(C)CC(N)=O)c1)C(F)(F)F (racemic) [Example 2, N-(2-Amino-2-oxoethyl)-3-(4-{[4-[5-fluoro-2-(methyloxy)phenyl]-2-hydroxy-4-methyl-2-(trifluoromethyl)pentyl]amino}-6-methyl-1H-indazol-1-yl)-N-methylbenzamide]",< 8

# Source: patent publication US7943651B2, “Compounds” (Glaxo Group Limited, priority 2006, dated 2011)
